Measurements taken from the supplement of paper PMC8426693.
The list shows a part of the results.

How the values were obtained:
Assay in all cases: NMR binding call after quantification (hit when 2 of 3 NMR criteria are met) (binary (1 = binding, 0 = not binding)); higher = binding
Conditions in all cases: RNA concentration 10 µM; fragment concentration 200 µM; 293 K
SARS-CoV-2 5_SL7 RNA = tested on: SARS-CoV-2 5_SL7 RNA
SARS-CoV-2 5_SL8 RNA = tested on: SARS-CoV-2 5_SL8 RNA
[1] = tested on: SARS-CoV-2 frameshift pseudoknot (PK) RNA
[2] = tested on: SARS-CoV-2 attenuator hairpin (att HP) RNA

Measured: NMR binding call

COC(C)c1nc(-c2cnoc2C)cs1 (centres undefined)
0: SARS-CoV-2 5_SL7 RNA | SARS-CoV-2 5_SL8 RNA | [1]

CC(C)c1ccc(C(=O)Nc2ccccn2)cc1
0: all assays above

COC(=O)c1ccccc1NC(=O)N1CCCC1
0: SARS-CoV-2 5_SL7 RNA | SARS-CoV-2 5_SL8 RNA | [1]

CC(Oc1ccc(-c2ccccc2)cc1)C(=O)O (centres undefined)
0: SARS-CoV-2 5_SL7 RNA | [2] | [1]

OC1CN(C(c2ccccc2)c2ccccc2)C1
0: SARS-CoV-2 5_SL7 RNA | SARS-CoV-2 5_SL8 RNA | [1]

Cc1ccc(NC(=O)c2ccccc2C)c(O)c1
0: SARS-CoV-2 5_SL7 RNA | SARS-CoV-2 5_SL8 RNA | [1]

CCNc1ncccc1C
0: all assays above

CCOc1ccc(C(=O)Nc2ccccc2)cc1
0: SARS-CoV-2 5_SL7 RNA | [2] | [1]

CNC1CCCCC1S(C)(=O)=O (centres undefined)
0: all assays above

CNc1nccc(OC)n1
0: SARS-CoV-2 5_SL7 RNA | SARS-CoV-2 5_SL8 RNA | [1]

CCN1N=C(C(F)(F)F)CC1=O
0: SARS-CoV-2 5_SL7 RNA | SARS-CoV-2 5_SL8 RNA | [1]

CCC(=O)Nc1ccc(N2CCC(C)CC2)cc1
0: all assays above

In the list so far, 5 contain a carbonyl joined to an NH by a bond outside any ring:
CC(C)c1ccc(C(=O)Nc2ccccn2)cc1
0: all assays above

COC(=O)c1ccccc1NC(=O)N1CCCC1
0: SARS-CoV-2 5_SL7 RNA | SARS-CoV-2 5_SL8 RNA | [1]

Cc1ccc(NC(=O)c2ccccc2C)c(O)c1
0: SARS-CoV-2 5_SL7 RNA | SARS-CoV-2 5_SL8 RNA | [1]

CCOc1ccc(C(=O)Nc2ccccc2)cc1
0: SARS-CoV-2 5_SL7 RNA | [2] | [1]

CCC(=O)Nc1ccc(N2CCC(C)CC2)cc1
0: all assays above

Additional compounds

CC(C)COc1ccc(C(=O)N2CCCC2)cc1
0: all assays above

CCC(NC)c1ccncc1 (centres undefined)
0: SARS-CoV-2 5_SL7 RNA | [2] | [1]

NC(=O)c1c[nH]c(C2CC2)n1
0: all assays above

CC(C)(C)C(=O)NCCc1nc2ccccc2[nH]1
0: SARS-CoV-2 5_SL7 RNA | SARS-CoV-2 5_SL8 RNA | [1]

Cc1occc1C(=O)Nc1ccncc1
1: SARS-CoV-2 5_SL8 RNA | [1]
0: SARS-CoV-2 5_SL7 RNA

COc1ccc(NCc2ccccc2O)cc1
0: SARS-CoV-2 5_SL7 RNA | SARS-CoV-2 5_SL8 RNA | [1]

COCC1CN(c2ccccn2)CCO1 (centres undefined)
0: SARS-CoV-2 5_SL7 RNA | SARS-CoV-2 5_SL8 RNA | [1]

CN(C)Cc1nc(C2(N)CCCC2)no1
0: SARS-CoV-2 5_SL7 RNA | SARS-CoV-2 5_SL8 RNA | [1]

FC(F)(F)c1ccc(CN2CCOCC2)cc1
0: SARS-CoV-2 5_SL7 RNA | SARS-CoV-2 5_SL8 RNA | [1]

CCN(CCO)c1ccc(N)cc1
0: all assays above

O=C(Nc1ccon1)c1cccc(Cl)c1
0: SARS-CoV-2 5_SL7 RNA | [2] | [1]

CC(N)c1ccc(-c2cncnc2)cc1 (centres undefined)
0: SARS-CoV-2 5_SL7 RNA | [2] | [1]
